# Data as given in PubChem BioAssay AID504808 (Drosophila RNAi Screening Center, 2011).
# Aim: 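Genes whose loss lifts activity of an E2F-responsive reporter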 (primary screen)
# Cell system: Drosophila S2 cells
# Knock-down reagent: long dsRNA against Drosophila genes
# Measured: 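Dual luciferase plate measurements; E2F-specific signal taken as firefly over Renilla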
# Reading the numbers: E2F firefly: higher = more E2F reporter activity; Renilla normaliser: higher = more normaliser reporter signal
# Rule for the call: 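a knock-down counted as active when the firefly/Renilla E2F signal rose above 50%, a threshold chosen arbitrarily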
# In all, the deposit lists about 21,000 reagents; this is an unselected part of those with a known target gene and a result. Of all reagents, 18 (0.084%) are marked active. 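Raw counts without plate normalisation, one of two replicates; the ratio scores behind the calls were not deposited.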 Names joined by + are all predicted targets of the reagent. The record does not give: the amount of reagent, the time to read-out.
gene,PubChem SID,"E2F firefly, rep 1","Renilla normaliser, rep 1",call
GlyRS,SID104190503,68381,3536,inactive
Nplp2,SID104189616,1.30e5,7147,inactive
Iru,SID104194249,53212,3363,inactive
sNPF-R,SID104190628,1.28e5,5968,inactive
CG4483,SID104190218,49862,3184,inactive
Pal1 + Pdrg1,SID104186379,1.48e5,4820,inactive
Oatp58Db,SID104184156,94316,3668,inactive
Brd,SID104189477,1.35e5,7118,inactive
CG15641,SID104199469,1.36e5,5833,inactive
CG31601,SID104183470,1.10e5,4646,inactive
CG17637,SID104191532,1.53e5,7916,inactive
Crys,SID104183086,66095,3304,inactive
Or65a,SID104188600,1.33e5,4968,inactive
CG10068,SID104192300,65329,3465,inactive
CG4744,SID104186679,3084,240,inactive
Osi12,SID104191969,1.14e5,5651,inactive
Fancl,SID104194342,1.37e5,5808,inactive
CG9899,SID104184389,1.08e5,4199,inactive
UQCR-C2,SID104190197,1.55e5,7527,inactive
Vmat + CG13330,SID104186157,2612,183,inactive
Rab19,SID104191052,99856,3744,inactive
simj,SID104190734,83891,3795,inactive
COX7A,SID104196306,1.35e5,6364,inactive
Gld2,SID104195655,68889,4698,inactive
XNP,SID104195386,1698,920,inactive
MED1,SID104191600,76113,3830,inactive
S2P,SID104187103,94590,4143,inactive
Cpr72Ec,SID104190241,83971,3684,inactive
Mlp60A,SID104184415,1.20e5,4569,inactive
CG11686,SID104194142,1.14e5,6237,inactive
fd96Cb,SID104196739,99980,6128,inactive
Ptpmeg2,SID104198069,1.30e5,5682,inactive
Ptpmeg2,SID104198070,1.24e5,5921,inactive
CG11920,SID104194231,72120,3010,inactive
Mst89B,SID104196540,1.19e5,6278,inactive
CngA,SID104186372,1.28e5,5255,inactive
CngA,SID104187154,1.36e5,5020,inactive
CG5665,SID104191575,1.30e5,5668,inactive
DhpD,SID104192080,78823,3760,inactive
Polr2B,SID104196623,52553,3874,inactive
nw,SID104186541,75613,3534,inactive
nw,SID104186688,1.46e5,4773,inactive
CG11437,SID104191451,1.10e5,4838,inactive
mal,SID104200373,1.51e5,4903,inactive
CG17065,SID104200336,1.45e5,5469,inactive
CG14787,SID104198398,94242,5453,inactive
Diedel3,SID104199336,1.44e5,7516,inactive
CG14841,SID104194757,99132,5798,inactive
Lrt,SID104185837,1.01e5,4011,inactive
elfless,SID104182243,1.07e5,4279,inactive
Or94b,SID104196565,1.07e5,5712,inactive
CG15042,SID104199410,1.48e5,5337,inactive
CG13603,SID104194398,69904,3177,inactive
Tao,SID104199365,1.76e5,6406,inactive
Tao,SID104199366,1.25e5,6841,inactive
CG8089,SID104186866,1.05e5,4700,inactive
Peritrophin-15a,SID104182428,1.43e5,4471,inactive
CG30020,SID104186044,44613,3001,inactive
CG30020,SID104186522,1.25e5,4519,inactive
eIF4B,SID104200775,1.43e5,6752,inactive
Art4,SID104195571,1.39e5,5991,inactive
CG9649,SID104196326,73877,2991,inactive
CG11841,SID104194191,1776,984,inactive
CG17193,SID104194979,1.36e5,7215,inactive
Rh4 + sina,SID104191188,77015,4046,inactive
Tat,SID104199394,1.49e5,5619,inactive
CG3408,SID104190152,1.32e5,7568,inactive
Nrt,SID104191029,78070,3593,inactive
Trap1,SID104184811,85637,3330,inactive
Parg,SID104198488,1899,1064,inactive
CG31953 (retired record) + gkt,SID104180501,85445,3990,inactive
TBC1D16,SID104182633,1.58e5,5009,inactive
CG6614,SID104182766,82502,3644,inactive
Smr,SID104199287,5411,872,inactive
Smr,SID104200080,55374,4156,inactive
Hph,SID104191956,72881,2944,inactive
Hph,SID104192043,1.04e5,4525,inactive
gcm2,SID104183330,1.39e5,4779,inactive
CG4238,SID104179882,1.38e5,5214,inactive
CG4238,SID104180436,1.64e5,6834,inactive
lncRNA:sphinx,SID104196991,1.06e5,5885,inactive
CG7183,SID104196002,71608,3492,inactive
TfIIA-S-2,SID104197583,44155,4130,inactive
DUBAI,SID104187073,2591,188,inactive

Just “E2F firefly, rep 1” (14 entries from above):
CG17065 [SID104200336]	1.45e5
CG14787 [SID104198398]	94242
Diedel3 [SID104199336]	1.44e5
CG14841 [SID104194757]	99132
Lrt [SID104185837]	1.01e5
elfless [SID104182243]	1.07e5
Or94b [SID104196565]	1.07e5
CG15042 [SID104199410]	1.48e5
CG13603 [SID104194398]	69904
Tao [SID104199365]	1.76e5
Tao [SID104199366]	1.25e5
CG8089 [SID104186866]	1.05e5
Peritrophin-15a [SID104182428]	1.43e5
CG30020 [SID104186044]	44613
